The other results are listed elsewhere or left out. Repeats are few or missing, and single values can be far off.
These compounds were tested on Saccharomyces cerevisiae BY4743 (assay: growth (OD600) relative to untreated control; higher = less growth inhibition). Conditions: compound concentration: 133 uM; 20 h.
Description: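 NMCCC compounds (133 uM, no IPBC) tested alone against Saccharomyces cerevisiae BY4743 in YPD, 96-well plates, starting OD600 ~0.1. Growth was read as OD600 at 20 h and expressed as % of the untreated control. Single pass.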

| Compound | growth |
| --- | --- |
| Cc1noc(C)c1CSCC(=O)NC1CCN(Cc2ccccn2)CC1 | 99.2% |
| Cc1[nH]c(C(=O)NCC(Nc2ccccc2)C(C)C)c(C)c1C(=O)OC(C)C (centres undefined) | 94.2% |
| Cc1cccc(-c2csc(N)c2C(=O)OC(C)C)c1 | 17.6% |
| CC(=O)c1c(C)[nH]c(C(=O)C(C)NCc2ccccc2CN2CCCC2)c1C (centres undefined) | 110% |
| CN(CCOC1=CC=C(F)C=C1)CC/2=C/C(=O)N/3\C=C/C=C\C3=N2 | 101% |
| Cc1cccc(NS(=O)(=O)c2cc(-c3onc(C)c3C)ccc2C)n1 | 99.2% |
| CCN1CCC(N(Cc2cccc(OC)c2)C(=O)Nc2cc(F)ccc2F)CC1 | 106% |
| CCOc1ccccc1NC(=O)CN1C(=O)CCSc2ccccc21 | 108% |
| N#CCCN(C(=O)COc1ccc(F)c(Cl)c1)c1ccc2c(c1)OCCO2 | 109% |
| CCCNC(=O)CSc1nnc(-c2ccc(NC(C)=O)cc2)n1-c1ccccc1 | 102% |
| CCC(C)NS(=O)(=O)c1ccc2c(c1)N(C)CCO2 (centres undefined) | 103% |
| CC1=CC=C(NC(=O)\C2=C\CN(CC2)CC3=CC=C(F)C=C3)C=C1F | 113% |
| COc1ccc(CNC(=O)c2cc(C(F)(F)F)nn2C)cc1OC | 103% |
| COc1cc(Br)c(CC(=O)Nc2cc(C)ccn2)cc1OC | 91% |
| CC(Sc1nc(C(C)C)n(-c2ccccc2)n1)C(=O)N1CCNC1=O (centres undefined) | 107% |
| CC(NC(=O)CSc1nc(O)c(C#N)c(-c2ccc(Cl)cc2)n1)c1ccccc1 (centres undefined) | 116% |
| CCc1nnc(NC(=O)CC2(CC(=O)N3CCOCC3)CCCC2)s1 | 104% |
| Cc1cc(C)c(NC(=O)CNC(=O)CCc2ccc(C3CC3C)o2)c(C)c1 (centres undefined) | 106% |
| CN(C)c1ccc(CN(Cc2ccco2)C(=O)COc2ccc(F)cc2)cc1 | 78.1% |
| CCN(CC)[S](=O)(=O)C1=CC=C(NC(=O)N\C2=C\N(C)C(=O)C3=CC=CC=C23)C=C1 | 104% |

Entries listed so far containing an aryl methoxy group:

| Compound | growth |
| --- | --- |
| CCN1CCC(N(Cc2cccc(OC)c2)C(=O)Nc2cc(F)ccc2F)CC1 | 106% |
| COc1ccc(CNC(=O)c2cc(C(F)(F)F)nn2C)cc1OC | 103% |
| COc1cc(Br)c(CC(=O)Nc2cc(C)ccn2)cc1OC | 91% |

Continuation.

| Compound | growth |
| --- | --- |
| CCC(=O)Nc1nc2ccc(NC(=O)Nc3ccccc3OC)cc2s1 | 101% |
| O=C(Nc1ccc(Cl)c(C(F)(F)F)c1)c1cc2ncccn2n1 | 106% |
| Cc1cc(C)cc(N(CCC#N)C(=O)COC(=O)CNC(=O)c2ccc(Br)o2)c1 | 106% |
| CCCNC(=O)CN(C)C(=O)c1ccc(-c2cc(Cl)ccc2Cl)o1 | 100% |
| COC1=CC=C(NC(=O)\C2=C(/C)C(=O)OC23CCC(C)CC3)C=C1Cl (centres undefined) | 106% |
| CNS(=O)(=O)c1cc(C(=O)N2CCN(S(=O)(=O)c3cc(OC)ccc3OC)CC2)n(C)c1 | 96.4% |
| CC1CCN(C(=O)c2csc(S(=O)(=O)N(C)C3CCCCC3)c2)CC1 | 106% |
| C[S](=O)(=O)NC1=CC=CC(=C1)\C2=N\N(C(C2)C3=CC=CC=C3O)[S](C)(=O)=O (centres undefined) | 101% |
| CCC(C)N\1C(=O)C2=CC=CC=C2\N=C1SCC(=O)N3CCNC3=O (centres undefined) | 99% |
| CCOC(=O)C1=C(C)N=C(C)/C(=C(/O)OCC)C1c1ccc(C)o1 (centres undefined) | 101% |
| CC(Sc1ncnc2sccc12)C(=O)Nc1cccc(C#N)c1 (centres undefined) | 107% |
| CCN(CC)C(=O)c1sc(N2C(=O)Nc3ccccc3N2O)c(C(=O)OC)c1C | 112% |
| COCCn1c(Cc2ccccc2)nnc1SCC(=O)N1CCCC1=O | 85.3% |
| CCN(CC)CCNc1nc2c(c(=O)[nH]c(=O)n2C)n1CC(C)C | 95.8% |
| CCOC(=O)c1csc(NC(=O)c2cc(C)oc2C)n1 | 89.9% |
| COc1ccc(Cn2ccnc2SCC(=O)NC2CCCCC2)cc1 | 102% |
| CC(C)C\C1=N\N(C(=O)C2=CC=CO2)C(O)(C1)C(F)(F)F (centres undefined) | 98.8% |
| CCn1c(SCC(=O)O)nc2c(=O)n(C)c(=O)n(C)c21 | 104% |
| CC(C)CN1\C(=C(/C(=O)N(C)C1=O)C2=CSC(=N2)NC3=CC=C(Cl)C=C3)N | 88.9% |

Source: the supplement of paper PMC8007513
